## Library screening results

Chains of the proteins cited; added tags and fusions are not shown.
UniProt E9BF75, entry or part of it: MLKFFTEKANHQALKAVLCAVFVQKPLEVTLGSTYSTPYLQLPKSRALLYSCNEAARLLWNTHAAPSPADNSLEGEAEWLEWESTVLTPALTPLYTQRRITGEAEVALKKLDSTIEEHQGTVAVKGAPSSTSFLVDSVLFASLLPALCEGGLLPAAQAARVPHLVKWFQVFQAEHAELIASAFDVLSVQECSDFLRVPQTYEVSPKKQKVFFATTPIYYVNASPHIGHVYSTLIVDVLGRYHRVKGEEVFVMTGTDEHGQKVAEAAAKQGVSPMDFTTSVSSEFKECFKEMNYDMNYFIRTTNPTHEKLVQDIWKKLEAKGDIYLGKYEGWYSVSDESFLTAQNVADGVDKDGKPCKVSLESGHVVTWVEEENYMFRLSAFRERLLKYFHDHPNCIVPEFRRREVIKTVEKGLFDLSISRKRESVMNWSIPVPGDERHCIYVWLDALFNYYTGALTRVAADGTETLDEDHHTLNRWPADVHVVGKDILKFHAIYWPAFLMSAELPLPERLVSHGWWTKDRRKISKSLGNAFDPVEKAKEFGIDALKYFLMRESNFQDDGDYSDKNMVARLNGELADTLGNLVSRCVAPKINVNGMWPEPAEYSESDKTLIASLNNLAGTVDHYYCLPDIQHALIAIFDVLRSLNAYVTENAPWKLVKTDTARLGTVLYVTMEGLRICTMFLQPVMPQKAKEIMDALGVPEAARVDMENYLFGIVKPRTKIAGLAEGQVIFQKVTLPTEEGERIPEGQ

From ChEMBL document CHEMBL3988442, “University of Dundee, Small-Polar-MMV Screening Library” (2021).

Mtb heat-shock: 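Assay on Mycobacterium tuberculosis, filed only as a heat shock assay from Cornell; the read-out is not stated. The concentration is filed as 10 mM, unlikely as a test dose, so the dose is not known. Higher reads as stronger inhibition (inferred: compounds with an IC50 in retests scored well above the rest). Size under these conditions: about 69,000 compounds, about 930 of them at 50% or above in at least one test.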
LdMetRS: 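Methionyl-tRNA synthetase (putative), Leishmania donovani (UniProt E9BF75). Primary screen of methionyl-tRNA synthetase; the read-out is not stated. The test concentration is not given. Values are per cent inhibition. About 68,000 compounds were tested under these conditions; 0.035% (about 24) showed 50% or more at least once.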
Mtb growth Cornell: 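Whole-cell assay for inhibitors of Mycobacterium tuberculosis growth, labelled Cornell in the record; the read-out is not stated. The concentration is filed as 10 mM, unlikely as a test dose, so the dose is not known. The record gives no direction; compounds strong in two other growth screens of this library score well above the rest, so higher reads as stronger inhibition. About 53,000 compounds were tested under these conditions; 1.7% (about 900) showed 50% or more at least once.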

All values are in %. How 0% and 100% were set is not recorded. Most values in the screen are low, and negative values occur. The compounds are a random part of those screened.

Result for N#Cc1ccc(CS(=O)(=O)NC(=O)c2ccc(C#N)cc2)cc1 was Mtb heat-shock: -32.43%; LdMetRS: 11.52%; Mtb growth Cornell: 16.41%. Result for Cc1nn(C)c(C)c1CCNC(C)c1ccc(-n2ccnc2C)cc1 (stereo not drawn) was Mtb heat-shock: -2.952%; LdMetRS: 11.68%; Mtb growth Cornell: 26.8%. O=C(CN1C(=O)CCNC1=O)N1CCC(c2ccc(F)cc2)C1 (stereo not drawn) gave Mtb heat-shock: 18.83%; LdMetRS: 11.57%; Mtb growth Cornell: -8.213%. For Cc1cnc(N2CCC3(CCC(C(=O)NC(C)C)C3)CC2)nc1.O=C(O)C(F)(F)F (stereo not drawn) the result was Mtb heat-shock: -18.7%; Mtb growth Cornell: 36.37%. O=C(O)C(F)(F)F.[H][C@@]12COC[C@]1([H])[C@@H](OCc1csc(C)n1)CN2C(=O)c1ccc[nH]1 gave Mtb heat-shock: 4.574%; Mtb growth Cornell: -2.255%. For [H][C@@]12CC[C@@]([H])(C1)N(CC(=O)N1CCN(c3ccc(C)cc3)C(=O)C1)C2 the result was Mtb heat-shock: -8.228%. For CN(C)c1ccc(CNCc2cnc(N3CCOCC3)nc2)cn1.Cl the result was Mtb heat-shock: -4.55%; Mtb growth Cornell: 8.996%.

[H][C@@]12COC[C@]1(COCc1cccc(C)n1)CN(C(=O)c1ccsc1)C2 read Mtb heat-shock: 1.956%; Mtb growth Cornell: 14.61%. With COc1cc(N2CCC3(CC2)CC(N2CCN(C)CC2)CO3)ncn1.O=C(O)C(F)(F)F.O=C(O)C(F)(F)F (stereo not drawn) the screen gave Mtb heat-shock: -2.981%. C1CC(CN2CCc3c(nnn3CC3CC3)C2COCC2CC2)C1.O=C(O)C(F)(F)F (stereo not drawn) read Mtb heat-shock: -20.7%; Mtb growth Cornell: 18.64%. For CN(Cc1ccco1)C(=O)CN1CCN(C)c2ccccc2C1 the result was Mtb heat-shock: -7.817%; LdMetRS: 9.774%. CN1CCn2c(-c3cnn(C)c3)cnc2C12CCN(CC1CC1)CC2.O=C(O)C(F)(F)F.O=C(O)C(F)(F)F.O=C(O)C(F)(F)F read Mtb heat-shock: -4.109%; Mtb growth Cornell: -18.01%. With Cc1nn(C)c(N2CCOCC2)c1CNCc1ccc2c(c1)OCO2 the screen gave Mtb heat-shock: -5.255%; LdMetRS: 19.89%. Result for Cc1cc2nc(CO[C@H]3CN(C4CCCCC4)C[C@H]3F)[nH]c2cc1C was Mtb heat-shock: -11.45%; LdMetRS: 1.017%; Mtb growth Cornell: -4.228%.

CC(C)COc1cncc(N2CCCC(CC(N)=O)C2)n1 (stereo not drawn) gave Mtb heat-shock: 6.374%; LdMetRS: 19.68%; Mtb growth Cornell: 20.17%. CC(Cn1cc(Br)cn1)C(=O)Nc1ccc(C(N)=O)cc1 (stereo not drawn) gave Mtb heat-shock: 1.785%; LdMetRS: -15.63%; Mtb growth Cornell: -2.013%. For CN(C(=O)c1ccccc1NCC(=O)O)C(C1CC1)C1CC1 the result was Mtb heat-shock: -13.03%; LdMetRS: 20.1%. CN(C)c1cccc(C(=O)N2CCc3ccc(=O)[nH]c3CC2)c1 gave Mtb heat-shock: -18.21%; LdMetRS: -0.5236%; Mtb growth Cornell: 0.9693%. For CNC(=O)NCCc1csc2ccccc12 the result was Mtb heat-shock: -14.51%; LdMetRS: 20.41%; Mtb growth Cornell: 3.094%. For COc1cccc(OC2CN(C(=O)c3sccc3C)C2)c1 the result was Mtb heat-shock: -21.72%; LdMetRS: 9.832%; Mtb growth Cornell: 55.64%. With CC(C)CNC(=O)CNC(=O)NC(C)COc1ccccc1F (stereo not drawn) the screen gave Mtb heat-shock: -13.71%; LdMetRS: -5.96%.

Result for CN(Cc1ccc(F)cc1)CC1(O)CCN(C(=O)c2ccccn2)C1 (stereo not drawn) was Mtb heat-shock: -11.8%; LdMetRS: 6.78%; Mtb growth Cornell: 17.87%. With Cn1cc(N2C(=O)CC[C@@H]3[C@H]2CCN3CCc2ccccc2)cn1 the screen gave LdMetRS: 5.205%. For COC(=O)c1cc(C2CC2)nc2c(Cl)cnn12 the result was Mtb heat-shock: -5.52%; LdMetRS: 2.089%; Mtb growth Cornell: -41.23%. With CCCS(=O)(=O)N1CCOC2(CCCN(c3ccc(C)nn3)C2)C1 (stereo not drawn) the screen gave Mtb heat-shock: -21.49%; LdMetRS: 5.926%; Mtb growth Cornell: 16.86%. Result for CN(C)C(=O)NCC1CC2(CO1)CN(c1nncs1)C2 (stereo not drawn) was Mtb heat-shock: 23.46%; LdMetRS: 12.99%; Mtb growth Cornell: 4.031%. CN(Cc1ccccc1O)C(=O)NC1CCCN(c2ncccn2)C1 (stereo not drawn) read Mtb heat-shock: -0.9811%; LdMetRS: 5.102%. For CCN(CC)c1ccc(C2C3=C(COC3=O)Nc3[nH]nc(C)c32)cc1 (stereo not drawn) the result was Mtb heat-shock: 2.395%; LdMetRS: 7.013%; Mtb growth Cornell: -5.047%.

Cc1csc(CN(C)C(=O)c2cccc(CCC(C)(C)O)c2)n1 read Mtb heat-shock: 0.1822%; LdMetRS: 13.41%; Mtb growth Cornell: -19.39%. COc1c(CNCC(c2cccc(F)c2)N(C)C)c(C(C)C)nn1C (stereo not drawn) read Mtb heat-shock: -6.331%; LdMetRS: 10.42%. CC1(C)CN(C(CNS(N)(=O)=O)c2ccc(Cl)cc2)CCO1 (stereo not drawn) gave Mtb heat-shock: -18.26%; LdMetRS: 8.527%; Mtb growth Cornell: -15.15%. For CCn1cc(S(=O)(=O)NCC2(N3CCOCC3)CCCCC2)c(C)n1 the result was Mtb heat-shock: 2.864%; LdMetRS: 1.935%; Mtb growth Cornell: -12.17%. With CCc1nc(CN(C)C2CCN(CCOc3ccccc3)C2)no1 (stereo not drawn) the screen gave Mtb heat-shock: -20.13%; LdMetRS: 21.86%. With Nc1ncc(-c2ccc(F)cc2)c(C2CCCNC2)n1 (stereo not drawn) the screen gave Mtb heat-shock: -9.664%; LdMetRS: 10.38%; Mtb growth Cornell: 2.627%. With Cc1ccc(CNCc2nccn2C)c(OC(C)(C)C)c1 the screen gave Mtb heat-shock: 50.94%; LdMetRS: 4.878%; Mtb growth Cornell: 21.39%.

COc1ccc(-c2cnc(CN3CCn4c(C)nnc4C3)o2)cc1 read Mtb heat-shock: -10.55%; LdMetRS: 6.122%. Result for c1ccc(-c2nnc([C@H]3CCN(C4CCOCC4)C3)o2)cc1 was Mtb heat-shock: 8.839%; LdMetRS: 11.86%; Mtb growth Cornell: 27.52%. Cc1cc(C(=O)NCC(C)C)nn1C gave Mtb heat-shock: 0.46%; LdMetRS: 19.34%. For Cc1nc(C)n(CC2CCCCN2CCCS(C)(=O)=O)n1 (stereo not drawn) the result was Mtb heat-shock: 1.896%; LdMetRS: 14.38%; Mtb growth Cornell: 6.834%.

For reference, 4 entries once more:

With O=C(CN1C(=O)CCNC1=O)N1CCC(c2ccc(F)cc2)C1 (stereo not drawn) the screen gave Mtb heat-shock: 18.83%; LdMetRS: 11.57%; Mtb growth Cornell: -8.213%.
With CNC(=O)NCCc1csc2ccccc12 the screen gave Mtb heat-shock: -14.51%; LdMetRS: 20.41%; Mtb growth Cornell: 3.094%.
With Cc1nn(C)c(N2CCOCC2)c1CNCc1ccc2c(c1)OCO2 the screen gave Mtb heat-shock: -5.255%; LdMetRS: 19.89%.
With COc1cc(N2CCC3(CC2)CC(N2CCN(C)CC2)CO3)ncn1.O=C(O)C(F)(F)F.O=C(O)C(F)(F)F (stereo not drawn) the screen gave Mtb heat-shock: -2.981%.